The target in the assay is T1, Sec62 (human) (UniProt Q99442).
T1 sequence: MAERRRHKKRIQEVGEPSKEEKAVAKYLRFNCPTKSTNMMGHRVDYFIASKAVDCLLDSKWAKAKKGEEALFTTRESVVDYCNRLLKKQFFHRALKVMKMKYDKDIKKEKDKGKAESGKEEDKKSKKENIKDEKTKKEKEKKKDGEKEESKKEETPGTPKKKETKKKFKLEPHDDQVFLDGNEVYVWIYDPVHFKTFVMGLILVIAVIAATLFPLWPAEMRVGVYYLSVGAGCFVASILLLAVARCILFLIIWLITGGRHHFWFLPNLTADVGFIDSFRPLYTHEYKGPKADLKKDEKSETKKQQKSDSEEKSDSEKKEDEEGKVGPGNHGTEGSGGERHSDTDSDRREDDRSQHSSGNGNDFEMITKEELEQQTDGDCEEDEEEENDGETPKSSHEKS
In words: co-IP; Huh7 cell lysate (50 mM HEPES, 150 mM NaCl, 1 mM EDTA, 1% CHAPS, with or without 50 μg/ml RNaseA). Legend: Co-IP with an anti-Sec62 antibody, Western blot for integrin αV and α5. Methods: M2 FLAG agarose resin, 4 °C overnight, elution with FLAG peptide.

No constants are given. Whether binding was seen depends on the method and setting. Binding seen in cells or lysates may run through a third protein. Binding calls can cover weak binding; strength is not graded here.

For the substance “integrin α5 (human (endogenous in Huh7))”, the binding result is “binds”.

“integrin αV (human (endogenous in Huh7))”: the binding entry is reported as “binds”.

The record behind these values is article PMC6904485.
